# From patent publication US5162307A, “Polymer bound elastase inhibitors” (Board of Trustees of the University of Kentucky, priority 1992, dated 1992)
# For at least one compound, name, drawing or mass did not settle the structure.
# Target: T1, HLE (Homo sapiens, UniProt P08246)
# T1 sequence (P08246 30-267): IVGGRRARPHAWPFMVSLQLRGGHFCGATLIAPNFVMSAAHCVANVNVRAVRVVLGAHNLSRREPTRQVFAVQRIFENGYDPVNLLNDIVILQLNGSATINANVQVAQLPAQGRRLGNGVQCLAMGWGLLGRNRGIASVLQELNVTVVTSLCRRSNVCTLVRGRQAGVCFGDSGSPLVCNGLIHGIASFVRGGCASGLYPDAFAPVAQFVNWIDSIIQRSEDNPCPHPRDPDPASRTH
# Experiment: Steady state kinetics for determination of Ki
# Assay type: biochemical
# Set-up: unit not given beside the values
# Details: substrate MeO-Suc-Ala-Ala-Pro-Val-NA, 25 C, pH 7.5, Dixon plots and slope replots of Lineweaver-Burke plots
compound,measurement,value
"CC(C)N(CC(=O)[C@@H]1CCCN1C(=O)[C@H](C)NC(=O)[C@H](C)NC(=O)CCC(=O)O)C(=O)Oc1ccc([N+](=O)[O-])cc1 [free PC inhibitor, p-nitrophenyl N-(succinyl-L-alanyl-L-alanyl-L-prolylmethyl)-N-isopropyl carbamate]",Ki,0.4-1.0×10^-5
